# Data reported in the supplement of paper PMC8728848.
# Some of the results follow.
# B1: Epa20 (Candida glabrata) (protein)
# chain: MGSSHHHHHHSSGLVPRGSHMASSNIPNNYPLGCSNKYSGHLPGLKMELYSYNYVNPRHPDPQNPGKLDQLYDPNLLGTYECFDSSYKDINYPRVGYKSKTLIGRSDGVSGILNFNFVPPWGCMPQKGQLPPAYNFKSNITLSNFTMILFGYFKPKISGNHIFSLHGDDLIYLNFGAGNAFDCCRQESSADNFGNYQAFSLWGINWEKKTLTVYLDMNTYYPIRIFYNNRDYQAIFNFSFKTEFDSSPVIDFQDYFFFLRDIDGGCPGEV
# Key:
# Assay in all cases: glycan array binding signal (z-score within array); higher = stronger binding
# Details in all cases: glycan notation: IUPAC condensed, linker removed
# [1] = molecular target: Man(a1-2)Man(a1-3)[Man(a1-2)Man(a1-6)]Man
# In short: (§1)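 Columns mapping to the same glycan were averaged after glycan names were converted to IUPAC-condensed notation. The data come from 3228 arrays in the Consortium for Functional Glycomics database, limited to those with an available protein sequence. Binding is reported as a within-array Z-score averaged across arrays of one protein sequence and across linkers.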
# [2] = molecular target: Man(a1-2)Man(a1-3)[Man(a1-2)Man(a1-6)]Man(a1-6)[Man(a1-2)Man(a1-2)Man(a1-3)]Man
# In short: as §1
# [3] = molecular target: Man(a1-2)Man(a1-3)[Man(a1-2)Man(a1-6)]Man(a1-6)[Man(a1-2)Man(a1-2)Man(a1-3)]Man(b1-4)GlcNAc(b1-4)GlcNAc
# In short: as §1
# [4] = molecular target: Man(a1-2)Man(a1-3)[Man(a1-6)]Man(a1-6)[Man(a1-2)Man(a1-3)]Man(b1-4)GlcNAc(b1-4)GlcNAc
# In short: as §1
# [5] = molecular target: Man(a1-2)Man(a1-6)[Man(a1-3)]Man(a1-6)[Man(a1-2)Man(a1-2)Man(a1-3)]Man
# In short: as §1
# [6] = molecular target: Man(a1-2)Man(a1-6)[Man(a1-3)]Man(a1-6)[Man(a1-2)Man(a1-2)Man(a1-3)]Man(b1-4)GlcNAc(b1-4)GlcNAc
# In short: as §1
# Man(a1-3)[Man(a1-6)]Man = molecular target: Man(a1-3)[Man(a1-6)]Man
# In short: as §1
# [7] = molecular target: Man(a1-3)[Man(a1-6)]Man(a1-6)[Man(a1-2)Man(a1-3)]Man(b1-4)GlcNAc(b1-4)GlcNAc
# In short: as §1
# [8] = molecular target: Man(a1-3)[Man(a1-6)]Man(a1-6)[Man(a1-3)]Man
# In short: as §1
# [9] = molecular target: Man(a1-3)[Man(a1-6)]Man(a1-6)[Man(a1-3)]Man(b1-4)GlcNAc(b1-4)GlcNAc
# In short: as §1
# [10] = molecular target: Man(a1-3)[Man(a1-6)]Man(b1-4)GlcNAc(b1-4)GlcNAc
# In short: as §1
# [11] = molecular target: Man(a1-3)[Man(a1-6)]Man(b1-4)GlcNAc(b1-4)[Fuc(a1-6)]GlcNAc
# In short: as §1
# Man(a1-6)Man = molecular target: Man(a1-6)Man
# In short: as §1
# Man(b1-4)GlcNAc = molecular target: Man(b1-4)GlcNAc
# In short: as §1
# MurNAc(b1-4)GlcNAc = molecular target: MurNAc(b1-4)GlcNAc
# In short: as §1
# Neu5Ac(a2-3)Gal = molecular target: Neu5Ac(a2-3)Gal
# In short: as §1
# [12] = molecular target: Neu5Ac(a2-3)Gal(b1-3)GalNAc
# In short: as §1
# [13] = molecular target: Neu5Ac(a2-3)Gal(b1-3)GalNAc(b1-3)Gal(a1-4)Gal(b1-4)Glc
# In short: as §1
# [14] = molecular target: Neu5Ac(a2-3)Gal(b1-3)GalNAc(b1-4)Gal(b1-4)Glc
# In short: as §1
# [15] = molecular target: Neu5Ac(a2-3)Gal(b1-3)GalNAc(b1-4)[Neu5Ac(a2-3)]Gal(b1-4)Glc
# In short: as §1
# [16] = molecular target: Neu5Ac(a2-3)Gal(b1-3)GalNAc(b1-4)[Neu5Ac(a2-8)Neu5Ac(a2-3)]Gal(b1-4)Glc
# In short: as §1
# [17] = molecular target: Neu5Ac(a2-3)Gal(b1-3)GalNAc6S
# In short: as §1
# [18] = molecular target: Neu5Ac(a2-3)Gal(b1-3)GlcNAc
# In short: as §1
# [19] = molecular target: Neu5Ac(a2-3)Gal(b1-3)GlcNAc(b1-2)Man
# In short: as §1
# [20] = molecular target: Neu5Ac(a2-3)Gal(b1-3)GlcNAc(b1-2)Man(a1-3)[GlcNAc(b1-4)][Neu5Ac(a2-3)Gal(b1-3)GlcNAc(b1-2)Man(a1-6)]Man(b1-4)GlcNAc(b1-4)GlcNAc
# In short: as §1
# [21] = molecular target: Neu5Ac(a2-3)Gal(b1-3)GlcNAc(b1-2)Man(a1-3)[Neu5Ac(a2-3)Gal(b1-3)GlcNAc(b1-2)Man(a1-6)]Man(b1-4)GlcNAc(b1-4)GlcNAc
# In short: as §1
# [22] = molecular target: Neu5Ac(a2-3)Gal(b1-3)GlcNAc(b1-2)[Neu5Ac(a2-3)Gal(b1-3)GlcNAc(b1-4)]Man(a1-6)[Neu5Ac(a2-3)Gal(b1-3)GlcNAc(b1-2)Man(a1-3)]Man(b1-4)GlcNAc(b1-4)GlcNAc
# In short: as §1
# [23] = molecular target: Neu5Ac(a2-3)Gal(b1-3)GlcNAc(b1-3)Gal(b1-3)GlcNAc
# In short: as §1
# [24] = molecular target: Neu5Ac(a2-3)Gal(b1-3)GlcNAc(b1-3)Gal(b1-4)GlcNAc
# In short: as §1
# [25] = molecular target: Neu5Ac(a2-3)Gal(b1-3)GlcNAc(b1-3)GalNAc
# In short: as §1
# [26] = molecular target: Neu5Ac(a2-3)Gal(b1-3)GlcNAc(b1-6)GalNAc
# In short: as §1
# [27] = molecular target: Neu5Ac(a2-3)Gal(b1-3)GlcNAc6S
# In short: as §1
# [28] = molecular target: Neu5Ac(a2-3)Gal(b1-3)[Fuc(a1-4)]GlcNAc
# In short: as §1
# [29] = molecular target: Neu5Ac(a2-3)Gal(b1-3)[Fuc(a1-4)]GlcNAc(b1-3)Gal(b1-3)[Fuc(a1-4)]GlcNAc
# In short: as §1
# [30] = molecular target: Neu5Ac(a2-3)Gal(b1-3)[Fuc(a1-4)]GlcNAc(b1-3)Gal(b1-4)[Fuc(a1-3)]GlcNAc
# In short: as §1
# [31] = molecular target: Neu5Ac(a2-3)Gal(b1-3)[GlcNAc(b1-6)]GalNAc
# In short: as §1
# [32] = molecular target: Neu5Ac(a2-3)Gal(b1-3)[Neu5Ac(a2-6)]GalNAc
# In short: as §1
# [33] = molecular target: Neu5Ac(a2-3)Gal(b1-3)[Neu5Ac(a2-6)]GlcNAc(b1-3)[Fuc(a1-3)[Gal(b1-4)]GlcNAc(b1-6)]Gal(b1-4)Glc
# In short: as §1
# [34] = molecular target: Neu5Ac(a2-3)Gal(b1-3)]Neu5Ac(a2-3)Gal(b1-4)]GlcNAc
# In short: as §1
# Neu5Ac(a2-3)Gal(b1-4)Glc = molecular target: Neu5Ac(a2-3)Gal(b1-4)Glc
# In short: as §1
# [35] = molecular target: Neu5Ac(a2-3)Gal(b1-4)GlcNAc
# In short: as §1
# [36] = molecular target: Neu5Ac(a2-3)Gal(b1-4)GlcNAc(b1-2)Man
# In short: as §1
# [37] = molecular target: Neu5Ac(a2-3)Gal(b1-4)GlcNAc(b1-2)Man(a1-3)[GlcNAc(b1-4)][Neu5Ac(a2-3)Gal(b1-4)GlcNAc(b1-2)Man(a1-6)]Man(b1-4)GlcNAc(b1-4)GlcNAc
# In short: as §1
# [38] = molecular target: Neu5Ac(a2-3)Gal(b1-4)GlcNAc(b1-2)Man(a1-3)[Neu5Ac(a2-3)Gal(b1-4)GlcNAc(b1-2)Man(a1-6)]Man(b1-4)GlcNAc(b1-4)GlcNAc
# In short: as §1
# [39] = molecular target: Neu5Ac(a2-3)Gal(b1-4)GlcNAc(b1-2)Man(a1-3)[Neu5Ac(a2-3)Gal(b1-4)GlcNAc(b1-2)Man(a1-6)]Man(b1-4)GlcNAc(b1-4)[Fuc(a1-6)]GlcNAc
# In short: as §1
binder,measurement,setting,value
B1,glycan array binding signal (z-score),[1],-0.826
same,glycan array binding signal (z-score),[2],-0.604
same,glycan array binding signal (z-score),[3],1.34
same,glycan array binding signal (z-score),[4],-0.728
same,glycan array binding signal (z-score),[5],-0.894
same,glycan array binding signal (z-score),[6],-0.37
same,glycan array binding signal (z-score),Man(a1-3)[Man(a1-6)]Man,0.009
same,glycan array binding signal (z-score),[7],0.066
same,glycan array binding signal (z-score),[8],-0.166
same,glycan array binding signal (z-score),[9],-0.394
same,glycan array binding signal (z-score),[10],-0.643
same,glycan array binding signal (z-score),[11],0.533
same,glycan array binding signal (z-score),Man(a1-6)Man,-0.123
same,glycan array binding signal (z-score),Man(b1-4)GlcNAc,0.958
same,glycan array binding signal (z-score),MurNAc(b1-4)GlcNAc,-0.005
same,glycan array binding signal (z-score),Neu5Ac(a2-3)Gal,-0.831
same,glycan array binding signal (z-score),[12],-0.099
same,glycan array binding signal (z-score),[13],0.615
same,glycan array binding signal (z-score),[14],-0.428
same,glycan array binding signal (z-score),[15],0.124
same,glycan array binding signal (z-score),[16],-0.377
same,glycan array binding signal (z-score),[17],-0.466
same,glycan array binding signal (z-score),[18],-0.232
same,glycan array binding signal (z-score),[19],-0.545
same,glycan array binding signal (z-score),[20],-0.021
same,glycan array binding signal (z-score),[21],-0.678
same,glycan array binding signal (z-score),[22],-0.182
same,glycan array binding signal (z-score),[23],-0.76
same,glycan array binding signal (z-score),[24],-0.379
same,glycan array binding signal (z-score),[25],-0.266
same,glycan array binding signal (z-score),[26],0.465
same,glycan array binding signal (z-score),[27],0.746
same,glycan array binding signal (z-score),[28],0.139
same,glycan array binding signal (z-score),[29],1.1
same,glycan array binding signal (z-score),[30],0.257
same,glycan array binding signal (z-score),[31],0.084
same,glycan array binding signal (z-score),[32],0.014
same,glycan array binding signal (z-score),[33],2.49
same,glycan array binding signal (z-score),[34],1.33
same,glycan array binding signal (z-score),Neu5Ac(a2-3)Gal(b1-4)Glc,0.869
same,glycan array binding signal (z-score),[35],-0.159
same,glycan array binding signal (z-score),[36],1.65
same,glycan array binding signal (z-score),[37],-0.439
same,glycan array binding signal (z-score),[38],0.036
same,glycan array binding signal (z-score),[39],-0.585

# 2 entries drawn at random from the list so far, as already listed:
binder,measurement,setting,value
B1,glycan array binding signal (z-score),[16],-0.377
same,glycan array binding signal (z-score),Neu5Ac(a2-3)Gal,-0.831
